Test results reported in patent US11717517B2, “LSD dose identification” (Universitätsspital Basel, priority 2020, dated 2023).

Tested on: healthy subjects
Assay: Blinding: retrospective identification of the LSD dose condition
Type: in vivo, human

Structure (SMILES): CCN(CC)C(=O)[C@@H]1C=C2c3cccc4[nH]cc(c34)C[C@H]2N(C)C1 [LSD, D-lysergic acid diethylamide base]
- retrospective dose identification (dose of 25 μg): distinguished from placebo and identified correctly or as 50 μg LSD by most participants
- retrospective dose identification (doses of 100 μg and 200 μg): identified as high doses but could not be distinguished
